{"source": "PubChem BioAssay AID540276", "about": "(National Center for Advancing Translational Sciences (NCATS), 2011)", "note": "Out of some 300,000 compounds screened, about 5,400 (1.8%) were called active. Inconclusive results, whose numbers are uncertain, are shown with a selection of clear calls. The call rests on the fitted dose curve; tested in HEK293 cells. A potency beside an inconclusive call is a rough fit, not a confirmed value. On the % scale 0 is the no-effect control and ±100 the full control effect; potency means the concentration at half of the fitted maximal effect.", "data": [{"assay": "qHTS for inhibitors of binding or entry into cells for Marburg Virus", "conditions": "Marburg virus pseudotyped entry inhibition, cell reporter; activity change, negative = inhibition: at 37.8 µM (top of the series) unless noted", "values": [{"compound": "CCn1c(=O)c(C(=O)NNS(=O)(=O)c2ccc(NC(=O)OC)cc2)c(O)c2ccccc21", "Potency": "inconclusive: 31.6 µM [activator, single point]"}, {"compound": "COCCn1c(SCC(=O)Nc2cc(C)nn2-c2ccccc2)nnc1-c1ccncc1", "Potency": "inconclusive: 0.891 µM [activator, partial curve, poor fit]"}, {"compound": "CC1CCN(S(=O)(=O)N2CCC(C(=O)O)CC2)CC1", "activity change, negative = inhibition": "inactive: 10.4%"}, {"compound": "CCOc1ccc2cc(C#N)c(SCC(=O)OC)nc2c1", "Potency": "inconclusive: 1.83 µM [activator, partial curve, poor fit]"}, {"compound": "O=c1[nH]sc2ccccc12", "Potency": "inconclusive: 3.98 µM [inhibitor, partial curve, poor fit]"}, {"compound": "CCCn1c(SCC(=O)NC2CCCC2)nnc1-c1cccnc1", "Potency": "inconclusive: 12.6 µM [activator, single point]"}, {"compound": "O=C1Nc2ccc(Cl)cc2C12Nc1ccccc1-c1nnc(SCc3ccccc3F)nc1O2", "note": "(stereo unspecified)", "Potency": "inconclusive: 0.164 µM [inhibitor, full curve, poor fit]"}, {"compound": "CC(Sc1nc(-c2ccccc2)cc(C(F)(F)F)n1)C(=O)N1CCCCC1", "note": "(stereo unspecified)", "Potency": "inconclusive: 6.51 µM [inhibitor, partial curve, poor fit]"}, {"compound": "CC1CCCCC1NC(=O)CN1CCC(NC(=O)c2cccc(F)c2)CC1", "note": "(stereo unspecified)", "Potency": "inconclusive: 10 µM [inhibitor, partial curve]"}, {"compound": "CCCCCOC(=O)Nc1ccc(S(=O)(=O)Nc2cccc([N+](=O)[O-])c2)cc1", "Potency": "inconclusive: 1.41 µM [inhibitor, full curve, poor fit]"}, {"compound": "COc1ccc(C2Nc3ccccc3C(=O)N2NS(=O)(=O)c2ccccc2)cc1", "note": "(stereo unspecified)", "Potency": "inconclusive: 35.5 µM [inhibitor, partial curve, poor fit]"}, {"compound": "CC(C)CC(NC(=O)c1ccco1)C(=O)Nc1ccc2c(c1)OCCO2", "note": "(stereo unspecified)", "activity change, negative = inhibition": "inactive: -3.17%"}, {"compound": "Cc1c(NC(=O)COC(=O)c2cc(-c3cccc4ccccc34)nc3ccccc23)c(=O)n(-c2ccccc2)n1C", "Potency": "inconclusive: 35.5 µM [inhibitor, single point]"}, {"compound": "COc1cc(OC)cc(-c2nc3ccccc3s2)c1", "Potency": "inconclusive: 1.16 µM [activator, single point]"}, {"compound": "CCOC(=O)c1cnc2ccc(C)cc2c1NCCc1ccc(OC)c(OC)c1", "Potency": "inconclusive: 35.5 µM [inhibitor, single point]"}, {"compound": "Cc1ccc(NC(=O)c2sc3nc(-c4ccc(F)cc4)ccc3c2N)cc1F", "Potency": "inconclusive: 11.2 µM [activator, single point]"}, {"compound": "Cc1ccc(NC(=O)C(Cc2ccccc2)NC(=O)OCc2ccccc2)cc1C", "note": "(stereo unspecified)", "Potency": "inconclusive: 16.4 µM [inhibitor, partial curve, poor fit]"}, {"compound": "Cc1cc(OCc2cccc(Cl)c2)c(C)cc1CN1CCOCC1", "Potency": "inconclusive: 11.2 µM [inhibitor, single point]"}, {"compound": "Cc1ccc2nc(-c3cccc(Br)c3)cc(C(=O)NC3=NCCS3)c2c1", "activity change, negative = inhibition": "inactive: -13.3%"}, {"compound": "O=C(NCc1ccccc1Cl)c1ccc2ccccc2n1", "Potency": "inconclusive: 35.5 µM [inhibitor, single point]"}, {"compound": "Cc1oc(-c2cccs2)nc1CS(=O)CC(=O)NCCCOC(C)C", "note": "(stereo unspecified)", "activity change, negative = inhibition": "inactive: 15.5%"}, {"compound": "COc1ccccc1OCC(=O)N/N=C1\\CCc2ccccc21", "activity change, negative = inhibition": "inactive: -13%"}, {"compound": "Cc1ccc(/C=C/C(O)=C2/C(=O)N(C)C3(C)CC2c2ccccc2O3)cc1", "note": "(stereo unspecified)", "Potency": "inconclusive: 32.6 µM [inhibitor, single point]"}, {"compound": "COCCN1CCN(C(=O)c2cc(COc3ccc(Cl)cc3OC)on2)CC1", "Potency": "inconclusive: 4.47 µM [activator, single point]"}, {"compound": "CC(C)=CCNc1ncnc2c1c(C#N)cn2C1OC(CO)C(O)C1O", "note": "(stereo unspecified)", "activity change, negative = inhibition": "inactive: -5.37%"}, {"compound": "NC(N)=N/N=C/c1cn(-c2ccccc2)nc1-c1cccs1", "Potency": "active: 23.1 µM"}, {"compound": "Cc1ccc(-c2cc3c(n2-c2ccccc2F)CC(C)(C)CC3=O)cc1", "activity change, negative = inhibition": "inactive: 9% [at 46.1 µM]"}, {"compound": "Cc1ccc(C)c(NC(=O)CN(C)C(=O)[C@@H](NC(=O)c2ccc(C(C)(C)C)cc2)C(C)C)c1", "Potency": "inconclusive: 7.94 µM [inhibitor, partial curve, poor fit]"}, {"compound": "O=C(O)C(Cc1cnc[nH]1)NS(=O)(=O)c1ccc(Br)cc1", "note": "(stereo unspecified)", "activity change, negative = inhibition": "inactive: -16.1% [at 46.1 µM]"}, {"compound": "O=C1CC(c2nnc(Cc3ccccc3Cl)o2)CN1c1ccccc1", "note": "(stereo unspecified)", "activity change, negative = inhibition": "inactive: 3.34% [at 46.1 µM]"}, {"compound": "O=C(Nc1ccc(CN2CCCCC2)cc1)Nc1ccc(Br)cc1Cl", "Potency": "active: 10 µM"}, {"compound": "COc1ccc(NC(=O)C2CCCN(S(=O)(=O)c3ccc4c(c3)CCCN4C(C)=O)C2)cc1", "note": "(stereo unspecified)", "Potency": "inactive"}, {"compound": "O=C(Cn1c(=O)n(-c2ccccc2)c(=O)c2oc3ccccc3c21)Nc1ccccc1", "Potency": "inconclusive: 15.8 µM [inhibitor, single point]"}, {"compound": "CC1=C(C(=O)OC(C)C)C(c2ccc(C)o2)C(C(=O)OC(C)C)=C(C)N1", "Potency": "inconclusive: 35.5 µM [inhibitor, single point]"}, {"compound": "CCCNC(=S)Nc1ccc(Nc2ccccc2)cc1", "Potency": "inconclusive: 17.8 µM [inhibitor, single point]"}, {"compound": "C=C1C(=O)O[C@@H]2[C@H]3O[C@]3(C)CC/C=C(\\C)CC[C@@H]12", "Potency": "active: 22.4 µM"}, {"compound": "CCn1c(C(O)c2cc(OC)c(OC)c(OC)c2)nc2ccccc21", "note": "(stereo unspecified)", "Potency": "inconclusive: 10 µM [inhibitor, single point]"}, {"compound": "CCc1cccc2c(C(=O)CN3C(=O)NC4(CCCCC4)C3=O)c[nH]c12", "Potency": "inconclusive: 35.5 µM [inhibitor, single point]"}, {"compound": "CC1=CSC2=NC(=O)/C(=C\\c3cccn3-c3ccc([N+](=O)[O-])cc3)C(=N)N12", "Potency": "inconclusive: 6.31 µM [inhibitor, partial curve, poor fit]"}, {"compound": "Cc1ccc(C(C(=O)NC2CCCC2)N(Cc2cccs2)C(=O)CNC(=O)c2cccs2)o1", "note": "(stereo unspecified)", "Potency": "inconclusive: 35.5 µM [inhibitor, single point]"}, {"compound": "Cc1cc(=S)c2ccccc2[nH]1", "Potency": "inconclusive: 4.47 µM [inhibitor, single point]"}, {"compound": "CN(C)CCNc1nc2c(c(=O)[nH]c(=O)n2C)n1CC(O)COc1ccc(Cl)cc1", "note": "(stereo unspecified)", "Potency": "inconclusive: 20.6 µM [inhibitor, single point]"}, {"compound": "COc1ccc(C(=O)n2nc(C)cc2Nc2ccccc2)cc1", "Potency": "inconclusive: 35.5 µM [activator, single point]"}, {"compound": "Cc1ccc(-c2cc(C(=O)Nc3cnn(C(C)C)c3)no2)cc1", "activity change, negative = inhibition": "inactive: 2.18%"}, {"compound": "COc1ccc(C2=NN(C(=O)C(O)c3ccccc3)C(O)(C(F)(F)F)C2)cc1", "note": "(stereo unspecified)", "Potency": "inconclusive: 35.5 µM [inhibitor, single point]"}, {"compound": "CCOc1ccc(C(C(=O)NCC2CCCO2)N(CCc2cccc(C)c2)C(=O)c2snc(C(N)=O)c2N)cc1", "note": "(stereo unspecified)", "Potency": "inconclusive: 35.5 µM [inhibitor, single point]"}, {"compound": "O=C(/C=C/c1ccc([N+](=O)[O-])cc1)N1CCN(c2ccccc2F)CC1", "Potency": "inconclusive: 11.2 µM [activator, partial curve, poor fit]"}, {"compound": "O=C(CSc1nc2ccccc2s1)NCCCN1CCOCC1", "activity change, negative = inhibition": "inactive: 13.8%"}, {"compound": "CCOC(=O)c1oc2ccc(S(=O)(=O)Nc3ccc4c(c3)n(C)c(=O)n4C)cc2c1C", "Potency": "inconclusive: 29.1 µM [inhibitor, single point]"}, {"compound": "COc1cccc(NC(=O)CSCn2nnc3c(=O)[nH]c(Cc4ccc(F)cc4)nc32)c1", "activity change, negative = inhibition": "inconclusive: 45.5% [activator] [at 46.1 µM]"}, {"compound": "COC(=O)[C@@H]1C[C@]2(OC(=O)c3ccccc3)C=CC(=O)C[C@@H]2N1C(=O)OCc1ccccc1", "Potency": "inconclusive: 23.1 µM [inhibitor, single point]"}, {"compound": "Fc1ccccc1OCc1nc(-c2ccc(-n3cccc3)cc2)no1", "Potency": "inconclusive: 14.1 µM [activator, single point]"}, {"compound": "CCCc1ccc(-c2cc(NC(=O)CSc3n[nH]c(N)n3)n(-c3ccccc3)n2)cc1", "Potency": "inconclusive: 18.3 µM [inhibitor, single point]"}, {"compound": "Cc1cc(C(=O)COC(=O)c2ccc(O)cc2O)c(C)n1-c1ccccc1", "Potency": "inconclusive: 35.5 µM [inhibitor, single point]"}, {"compound": "COc1cc(-c2n[nH]c(=S)n2-c2cc(C(F)(F)F)ccc2Cl)cc(OC)c1OC", "Potency": "inconclusive: 2.24 µM [inhibitor, partial curve, poor fit]"}, {"compound": "COc1cc(CNc2ccc3c(c2)ncn3C(C)C)cc(OC)c1OC", "Potency": "inconclusive: 7.08 µM [inhibitor, partial curve, poor fit]"}, {"compound": "CC(=O)c1c(C)[nH]c(C(=O)OCC(=O)N(C)C)c1C", "Potency": "inconclusive: 13 µM [activator, partial curve, poor fit]"}, {"compound": "Cc1ccc(Cl)cc1N(Cc1ccc(C(=O)NCc2cccnc2)cc1)S(=O)(=O)c1ccccc1", "activity change, negative = inhibition": "inactive: 27.4%"}, {"compound": "Cc1oc2ccc(OCC(N)=O)cc2c1C(=O)OC(C)C", "Potency": "inconclusive: 3.98 µM [activator, partial curve, poor fit]"}, {"compound": "CC(C)(C)C(=O)Nc1nnc(SCC(=O)NC2CCCCC2)s1", "activity change, negative = inhibition": "inactive: 7.42%"}, {"compound": "Cc1ccc2[nH]c3ccccc3c(=O)c2c1", "activity change, negative = inhibition": "inactive: 1.52%"}, {"compound": "C[C@H]1OC[C@@H](C[N+](C)(C)C)O1", "Potency": "inconclusive: 0.891 µM [inhibitor, single point]"}, {"compound": "CC(=O)c1c(C)[nH]c(C(=O)Nc2c(C)n(C)n(-c3ccccc3)c2=O)c1C", "Potency": "inactive"}, {"compound": "COc1ccc(CN=C2NN=C(c3cccc(OC)c3)CS2)cc1", "Potency": "inconclusive: 5.62 µM [activator, single point]"}, {"compound": "COc1ccc2c(c1OC)C(=O)N1c3ccccc3N=C(c3ccc([N+](=O)[O-])cc3)CC21", "note": "(stereo unspecified)", "activity change, negative = inhibition": "inactive: -14%"}, {"compound": "CC(NC(=O)c1cccc(S(=O)(=O)N2CCN(Cc3ccccc3)CC2)c1)c1ccc(Cl)cc1", "note": "(stereo unspecified)", "Potency": "inconclusive: 8.91 µM [inhibitor, partial curve, poor fit]"}]}]}
